According to publication PMC9974482:
These are yes or no findings as the source states them, for the method shown.

Target: Acinetobacter baumannii PBP2 (aa 53 to 672), truncated soluble form (Acinetobacter baumannii ATCC 19606) (UniProt D0C8Z9)
Experiment: crystal structure; His6-PBP2 (53-672) crystallised alone at 18 °C, pH 4.2; two macromolecules in the asymmetric unit, space group I222; interfaces analysed in PISA; both purified

B1: Acinetobacter baumannii PBP2 (aa 53 to 672), truncated soluble form (domain or fragment, UniProt D0C8Z9 53-672)
chain: ASDKNRIRLQPLPPARGYIYDRNGVLLADNYPVFTATLSKADVENVDTVIEQLQPILELTQEDVDRFKSRIKTARKTERVAIKLNLTETNIAKFSEVKYKFPGVRIETQMTRYYPHGDLFAHVIGYVGRINDKELKSIDKDLYAGTNLIGKIGVEKSYEDLLHGTPGYESVEADAHSNILRHLGRKDPTRGNDLYLSLDYGLQVVASQQLAGRRGAIVAIDPRTGEILALVSSPSFNPNLFVTGINHKDYSSLRDNIDQPLYNRAVQGVYPPGSTIKPMEAMGGLHYGIVDWATAISDPGYFHLPGDSHKFRDWKKTGHGIVNMHKAIIMSCDTYFYILANQMGIDQMNQWMRQFGFGQKTGVDLPSESEGLYPNPEWKMRTRKSKWMKGETISVSIGQGAFTATPLQLAMATAITANHGSHVVPHVLRATHGAKPFTVRNAPDGKINFNGTDEDWVKMREAMIDVIQSGTGRGIRTPLYQIAGKTGTAQVKSIAQGKRYNEAALSERQLDHGLFVGFAPADKPEIAIAVIWENGRHGGSAAQLAKPVFDYWLLTRKKNPIRPANHQVNGGLMTAGIKPGELPSGNESASSTPATSAPTSAAASTPQATPTRPATNEVDE
binding: no binding
